Holding throughout (type): cell-based
In assay [1] the target is T1, RNA polymerase II (Mus musculus) (UniProt P08775+Q8CFI7+P97760+A0A3Q4L2S8+Q80UW8+P61219+P62488+Q923G2+P60898+O08740+Q63871+P62876). Nature of the assay: Inhibition of RNA polymerase II in mouse B16-F1 migrating cells assessed as fold change in Tmem219-RNA stability at 0.1 mM measured by ChIP-seq analysis relative to control cells.
Assay [2] has as its target T1, RNA polymerase II (Mus musculus). The assay is described as follows: Inhibition of RNA polymerase II in mouse B16-F1 migrating cells assessed as fold change in Rbm27-RNA stability at 0.1 mM measured by ChIP-seq analysis relative to control cells.
For assay [3] the target is unchanged. The assay is described as follows: Inhibition of RNA polymerase II in mouse B16-F1 migrating cells assessed as fold change in Thoc1-RNA stability at 0.1 mM measured by ChIP-seq analysis relative to control cells.
Assay [4] shares this target. The assay is described as follows: Inhibition of RNA polymerase II in mouse B16-F1 migrating cells assessed as fold change in Slf1-RNA stability at 0.1 mM measured by ChIP-seq analysis relative to control cells.
The target is the same in assay [5]. Nature of the assay: Inhibition of RNA polymerase II in mouse B16-F1 migrating cells assessed as fold change in Lztfl1-RNA stability at 0.1 mM measured by ChIP-seq analysis relative to control cells.
Assay [6] has the same target. Nature of the assay: Inhibition of RNA polymerase II in mouse B16-F1 migrating cells assessed as fold change in Yipf3-RNA stability at 0.1 mM measured by ChIP-seq analysis relative to control cells.
Assay [7] shares this target. The assay is described as follows: Inhibition of RNA polymerase II in mouse B16-F1 migrating cells assessed as fold change in Rnf126-RNA stability at 0.1 mM measured by ChIP-seq analysis relative to control cells.
Assay [8] shares this target. Nature of the assay: Inhibition of RNA polymerase II in mouse B16-F1 migrating cells assessed as fold change in Ndufb10-RNA stability at 0.1 mM measured by ChIP-seq analysis relative to control cells.
Assay [9] shares this target. The assay is described as follows: Inhibition of RNA polymerase II in mouse B16-F1 migrating cells assessed as fold change in Psmf1-RNA stability at 0.1 mM measured by ChIP-seq analysis relative to control cells.
Assay [10] has the same target. The assay is described as follows: Inhibition of RNA polymerase II in mouse B16-F1 migrating cells assessed as fold change in Tmem160-RNA stability at 0.1 mM measured by ChIP-seq analysis relative to control cells.
For assay [11] the target is unchanged. Nature of the assay: Inhibition of RNA polymerase II in mouse B16-F1 migrating cells assessed as fold change in 1700003F12Rik-RNA stability at 0.1 mM measured by ChIP-seq analysis relative to control cells.
The target is the same in assay [12]. Nature of the assay: Inhibition of RNA polymerase II in mouse B16-F1 migrating cells assessed as fold change in Pign-RNA stability at 0.1 mM measured by ChIP-seq analysis relative to control cells.
For assay [13] the target is unchanged. Nature of the assay: Inhibition of RNA polymerase II in mouse B16-F1 migrating cells assessed as fold change in Ctage5-RNA stability at 0.1 mM measured by ChIP-seq analysis relative to control cells.
Assay [14] shares this target. Nature of the assay: Inhibition of RNA polymerase II in mouse B16-F1 migrating cells assessed as fold change in Stil-RNA stability at 0.1 mM measured by ChIP-seq analysis relative to control cells.
Assay [15] has the same target. Nature of the assay: Inhibition of RNA polymerase II in mouse B16-F1 migrating cells assessed as fold change in Tmem123-RNA stability at 0.1 mM measured by ChIP-seq analysis relative to control cells.
Assay [16] deals with Histone-lysine N-methyltransferase EZH2 (Mus musculus) (UniProt Q61188). The assay is described as follows: Inhibition of EZH2 in mouse B16-F1 migrating cells assessed as fold change in H3K27me3-buffered regulated Gapdh-mRNA expression at 3 uM measured by ChIP-seq analysis relative to control cells.
Assay [17] has the same target. The assay is described as follows: Inhibition of EZH2 in mouse B16-F1 migrating cells assessed as fold change in H3K27me3-buffered regulated Lrch1-mRNA expression at 3 uM measured by ChIP-seq analysis relative to control cells.
The target is the same in assay [18]. Nature of the assay: Inhibition of EZH2 in mouse B16-F1 migrating cells assessed as fold change in H3K27me3-buffered regulated Ets1-mRNA expression at 3 uM measured by ChIP-seq analysis relative to control cells.
Assay [19] shares this target. Nature of the assay: Inhibition of EZH2 in mouse B16-F1 migrating cells assessed as fold change in H3K27me3-buffered regulated Insig1-mRNA expression at 3 uM measured by ChIP-seq analysis relative to control cells.
For assay [20] the target is unchanged. Nature of the assay: Inhibition of EZH2 in mouse B16-F1 migrating cells assessed as fold change in H3K27me3-buffered regulated Acap1-mRNA expression at 3 uM measured by ChIP-seq analysis relative to control cells.
The target is the same in assay [21]. Nature of the assay: Inhibition of EZH2 in mouse B16-F1 migrating cells assessed as fold change in H3K27me3-buffered regulated Cenpf-mRNA expression at 3 uM measured by ChIP-seq analysis relative to control cells.
Assay [22] has the same target. Nature of the assay: Inhibition of EZH2 in mouse B16-F1 migrating cells assessed as fold change in H3K27me3-buffered regulated Gls-mRNA expression at 3 uM measured by ChIP-seq analysis relative to control cells.
For assay [23] the target is unchanged. The assay is described as follows: Inhibition of EZH2 in mouse B16-F1 migrating cells assessed as fold change in H3K27me3-buffered regulated Atrx-mRNA expression at 3 uM measured by ChIP-seq analysis relative to control cells.
For assay [24] the target is unchanged. The assay is described as follows: Inhibition of EZH2 in mouse B16-F1 migrating cells assessed as fold change in H3K27me3-buffered regulated Dusp1-mRNA expression at 3 uM measured by ChIP-seq analysis relative to control cells.
For assay [25] the target is unchanged. Nature of the assay: Inhibition of EZH2 in mouse B16-F1 migrating cells assessed as fold change in H3K27me3-buffered regulated Gm2115-mRNA expression at 3 uM measured by ChIP-seq analysis relative to control cells.
Assay [26] shares this target. The assay is described as follows: Inhibition of EZH2 in mouse B16-F1 migrating cells assessed as fold change in H3K27me3-dependent regulated Osgin1-mRNA expression at 3 uM measured by ChIP-seq analysis relative to control cells.
Assay [27] shares this target. Nature of the assay: Inhibition of EZH2 in mouse B16-F1 migrating cells assessed as fold change in H3K27me3-buffered regulated Gm4876-mRNA expression at 3 uM measured by ChIP-seq analysis relative to control cells.
For assay [28] the target is unchanged. The assay is described as follows: Inhibition of EZH2 in mouse B16-F1 migrating cells assessed as fold change in H3K27me3-buffered regulated Capg-mRNA expression at 3 uM measured by ChIP-seq analysis relative to control cells.
For assay [29] the target is unchanged. The assay is described as follows: Inhibition of EZH2 in mouse B16-F1 migrating cells assessed as fold change in H3K27me3-buffered regulated Traf4-mRNA expression at 3 uM measured by ChIP-seq analysis relative to control cells.
For assay [30] the target is unchanged. The assay is described as follows: Inhibition of EZH2 in mouse B16-F1 migrating cells assessed as fold change in H3K27me3-buffered regulated Srgap1-mRNA expression at 3 uM measured by ChIP-seq analysis relative to control cells.

By UniProt entry, the sequences of proteins in these tests, tags left out.
UniProt Q61188, whole entry: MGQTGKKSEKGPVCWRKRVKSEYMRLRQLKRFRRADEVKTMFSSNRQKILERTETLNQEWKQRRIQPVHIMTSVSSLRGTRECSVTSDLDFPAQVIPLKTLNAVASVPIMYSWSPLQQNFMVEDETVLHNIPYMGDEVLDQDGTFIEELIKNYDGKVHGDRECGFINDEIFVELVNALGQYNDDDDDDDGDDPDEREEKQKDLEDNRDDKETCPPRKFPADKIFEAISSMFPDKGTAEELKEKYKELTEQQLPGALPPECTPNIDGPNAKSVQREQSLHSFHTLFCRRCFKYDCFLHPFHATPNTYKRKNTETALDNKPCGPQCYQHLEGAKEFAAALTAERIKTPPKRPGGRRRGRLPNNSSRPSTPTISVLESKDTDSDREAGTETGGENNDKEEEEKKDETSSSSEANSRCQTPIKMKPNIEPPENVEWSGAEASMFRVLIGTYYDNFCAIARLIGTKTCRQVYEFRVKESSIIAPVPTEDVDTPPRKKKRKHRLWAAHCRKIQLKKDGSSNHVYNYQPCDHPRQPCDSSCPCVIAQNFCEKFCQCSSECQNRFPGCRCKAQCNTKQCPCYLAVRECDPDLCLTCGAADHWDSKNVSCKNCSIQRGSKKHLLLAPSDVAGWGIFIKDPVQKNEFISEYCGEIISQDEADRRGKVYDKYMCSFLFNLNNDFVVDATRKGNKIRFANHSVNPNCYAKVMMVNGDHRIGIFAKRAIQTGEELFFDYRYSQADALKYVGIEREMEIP

SMILES strings stand for the structures. The source gives many values for each of these; only a part stands here.

Take `OC[C@H]1O[C@@H](n2cnc3cc(Cl)c(Cl)cc32)[C@H](O)[C@@H]1O`: the log2FC in assay [1] is 0.49; in assay [2], -0.69; in assay [3], -0.54; in assay [4], -0.85; in [5], -0.83; in assay [6] it was 0.47. In addition, the log2FC in [7] is 0.67; in assay [8] it was 0.56; in assay [9] it was 0.38; in assay [10], 0.61; in assay [11], 0.87; in assay [12], -0.54. Further, the figures for the log2FC in assay [13], in [14] and in assay [15] were -0.46, -0.71 and -0.56, respectively.

In the case of `CCCc1cc(C)[nH]c(=O)c1CNC(=O)c1cc(-c2ccnc(N3CCN(C)CC3)c2)cc2c1cnn2C(C)C`, the log2FC in assay [16] was 0.44; in [17], -0.65; in [18], -0.41; in assay [19] it was 0.64; in assay [20] it was -1.33; in assay [21] it was -0.45. The log2FC in assay [22] was -0.42; in assay [23], -0.39; in assay [24], 0.72; in assay [25] it was 0.78; in assay [26], 0; in assay [27], 0.46. Besides, the figures for the log2FC in assay [28], in assay [29] and in [30] were 0.41, -0.46 and 0.45, respectively.

For the origin of these results see ChEMBL document CHEMBL5674883, “The Heterochromatin Landscape in Migrating Cells and the Importance of H3K27me3 for Associated Transcriptome Alterations” (Cells, 2018).
